Data set [1] is described as follows: SWIR imaging (above 1000 nm) of vials of purified fluorescent proteins, signal per concentration.
Data set [2] is described as follows: Fluorescent protein signal in context of autofluorescence of the lower back of mice. On the set-up: species or system mouse. To be noted: inverse of signal over background; minimal protein concentration matching autofluorescence of mouse lower back, above 1000 nm.

This is an account of results in patent US12618846B2, “Method and device for imaging fluorescent proteins in near- and short-wave infrared” (HELMHOLTZ ZENTRUM MÜNCHEN—DEUTSCHES FORSCHUNGSZENTRUM FÜR …, priority 2019, dated 2026).

Some compounds share one wording; it may come from a single statement.

B1: tdTomato: tandem-dimer orange/red fluorescent protein derived from Discosoma sp., e.g. SEQ ID NO: 60 (also SEQ ID NO: 1, 7) (protein)
chain: MVSKGEEVIKEFMRFKVRMEGSMNGHEFEIEGEGEGRPYEGTQTAKLKVTKGGPLPFAWDILSPQFMYGSKAYVKHPADIPDYKKLSFPEGFKWERVMNFEDGGLVTVTQDSSLQDGTLIYKVKMRGTNFPPDGPVMQKKTMGWEASTERLYPRDGVLKGEIHQALKLKDGGHYLVEFKTIYMAKKPVQLPGYYYVDTKLDITSHNEDYTIVEQYERSEGRHHLFLGHGTGSTGSGSSGTASSEDNNMAVIKEFMRFKVRMEGSMNGHEFEIEGEGEGRPYEGTQTAKLKVTKGGPLPFAWDILSPQFMYGSKAYVKHPADIPDYKKLSFPEGFKWERVMNFEDGGLVTVTQDSSLQDGTLIYKVKMRGTNFPPDGPVMQKKTMGWEASTERLYPRDGVLKGEIHQALKLKDGGHYLVEFKTIYMAKKPVQLPGYYYVDTKLDITSHNEDYTIVEQYERSEGRHHLFLYGMDELYK
modifications: tdTomato
Molecule B1 had a signal per conc. in data set [1] (emission above 1000 nm, counts normalised to excitation power [mW/cm^2], exposure time [ms], concentration [mu M], slope of linear fit) of 1.72 ± 0.01. The “emission beyond 1000 nm” value in data set [1] (excitation 470 nm, 565 nm, 660 nm respectively, InGaAs camera, 1000 nm long-pass) is “exhibit emission beyond 1000 nm”. Further, the autofluorescence equiv. conc. in data set [2] was found to be 0.237 ± 0.05.
